These are yes or no findings as the source states them, for the method shown. Some binding calls cover weakened binding; strength is not graded here.
How the values were obtained:
[1] = target: recombinant cynomolgus GPC3 (cynomolgus); experiment: ELISA
[2] = target: recombinant mouse GPC3 (mouse) (UniProt Q8CFZ4); experiment: ELISA

By UniProt entry, the sequences of proteins in these tests, tags left out.
UniProt Q8CFZ4: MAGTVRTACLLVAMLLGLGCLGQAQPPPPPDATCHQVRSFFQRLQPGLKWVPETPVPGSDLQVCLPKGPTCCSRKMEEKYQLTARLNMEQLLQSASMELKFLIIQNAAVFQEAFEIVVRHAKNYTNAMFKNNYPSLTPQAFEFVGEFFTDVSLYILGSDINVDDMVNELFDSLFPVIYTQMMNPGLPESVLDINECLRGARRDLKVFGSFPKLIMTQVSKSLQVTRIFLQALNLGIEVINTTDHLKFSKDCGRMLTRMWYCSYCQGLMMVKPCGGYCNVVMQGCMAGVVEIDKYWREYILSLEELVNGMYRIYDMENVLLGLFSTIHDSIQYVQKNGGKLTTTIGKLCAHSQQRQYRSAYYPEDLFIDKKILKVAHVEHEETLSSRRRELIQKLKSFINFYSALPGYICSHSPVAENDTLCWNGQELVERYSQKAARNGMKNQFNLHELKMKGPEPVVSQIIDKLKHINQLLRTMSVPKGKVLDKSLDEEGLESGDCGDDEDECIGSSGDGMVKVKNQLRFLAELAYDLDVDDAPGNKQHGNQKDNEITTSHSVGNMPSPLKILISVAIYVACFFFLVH

- binding [1]: binds
- binding [2]: binds
B1: anti-GPC3 1A1 mAb (antibody, human IgG1, kappa, V domains shown)
VH: EVQLVQSGAEVKKPGASVKVSCKASGYTFTSYGISWVRQAPGQGLEWMGWISAYNGNTNYAQKLQGRVTMTTDTSTSTAYMELRSLRSDDTAVYYCARAGTPTQILRYFDWLSQPFDYWGQGTLVTVSS
VL: EIVLTQSPLSLPVTLGQPASISCRSSQSLVYSDGNTYLNWFHQRPGQSPRRLIYKVSNRDSGVPERFSGSGSGTDFTLKISRVEAEDVGVYYCMQSTHWPLTFGGGTKVEIKR
